In patent EP4778539A1 one finds binding data, which are given here for 16 molecules.

Numbering of substitutions follows the chain as printed. These are yes or no findings as the source states them, for the method shown. Some results given as binding are weak or reduced against the parent protein; the word gives no strength.

First the molecules themselves.
T1: human CAPRIN-1 on the cell membrane surface of human cancer cells (human) (UniProt Q14444)
T1 sequence (looked up): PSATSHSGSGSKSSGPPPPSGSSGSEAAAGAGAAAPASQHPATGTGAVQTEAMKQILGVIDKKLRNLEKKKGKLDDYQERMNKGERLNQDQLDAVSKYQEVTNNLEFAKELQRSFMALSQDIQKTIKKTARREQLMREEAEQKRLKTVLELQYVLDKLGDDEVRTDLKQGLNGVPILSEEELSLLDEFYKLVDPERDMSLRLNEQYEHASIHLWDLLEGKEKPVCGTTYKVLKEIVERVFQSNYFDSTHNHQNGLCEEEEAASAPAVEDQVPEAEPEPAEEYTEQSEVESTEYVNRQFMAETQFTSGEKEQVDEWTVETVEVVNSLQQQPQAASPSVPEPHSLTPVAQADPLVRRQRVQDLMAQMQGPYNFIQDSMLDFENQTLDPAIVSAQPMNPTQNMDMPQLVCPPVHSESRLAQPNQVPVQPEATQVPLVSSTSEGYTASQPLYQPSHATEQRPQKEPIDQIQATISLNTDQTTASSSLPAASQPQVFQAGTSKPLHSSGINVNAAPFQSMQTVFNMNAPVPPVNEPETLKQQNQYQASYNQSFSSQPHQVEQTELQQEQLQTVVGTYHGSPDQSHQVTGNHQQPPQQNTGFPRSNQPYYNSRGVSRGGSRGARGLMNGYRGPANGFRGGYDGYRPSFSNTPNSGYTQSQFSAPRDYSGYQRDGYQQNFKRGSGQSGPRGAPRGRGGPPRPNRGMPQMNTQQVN

T2: mouse CAPRIN-1 on the cell membrane surface of mouse cancer cells (mouse) (UniProt Q60865)
T2 sequence (looked up): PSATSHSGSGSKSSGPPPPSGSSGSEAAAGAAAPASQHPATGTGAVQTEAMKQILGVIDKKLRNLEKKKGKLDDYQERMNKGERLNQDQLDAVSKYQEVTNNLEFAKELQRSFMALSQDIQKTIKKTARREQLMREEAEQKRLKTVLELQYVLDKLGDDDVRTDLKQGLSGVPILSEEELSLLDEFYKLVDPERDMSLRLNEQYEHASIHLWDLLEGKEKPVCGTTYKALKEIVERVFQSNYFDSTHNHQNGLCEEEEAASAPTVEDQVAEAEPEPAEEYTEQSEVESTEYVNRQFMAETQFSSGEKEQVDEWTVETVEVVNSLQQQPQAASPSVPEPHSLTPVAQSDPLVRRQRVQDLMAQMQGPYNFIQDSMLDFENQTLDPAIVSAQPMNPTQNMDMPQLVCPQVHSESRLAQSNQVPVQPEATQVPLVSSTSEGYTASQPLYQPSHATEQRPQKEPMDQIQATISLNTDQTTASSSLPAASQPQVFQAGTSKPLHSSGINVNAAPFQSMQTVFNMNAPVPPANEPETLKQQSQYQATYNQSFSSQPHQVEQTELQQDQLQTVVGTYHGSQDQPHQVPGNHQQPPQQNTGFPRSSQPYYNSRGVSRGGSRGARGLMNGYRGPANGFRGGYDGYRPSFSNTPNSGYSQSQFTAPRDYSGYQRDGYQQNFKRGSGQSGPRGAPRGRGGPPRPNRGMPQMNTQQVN

B1: humanized antibody complex #69 (antibody, human IgG1, V domains shown)
VH: EVQLVESGGGLVQPGGSLRLSCAASGFSLSSHSLGWVRQAPGKGLEWIGDIRSGGSAYYANWAKGRFTISRDNSKNTLYLQMNSLRAEDTAVYYCTRTNGPSDLTNRLDLWGQGTLVTVSS
VL: QVLTQSPSSLSASVGDRVTINCQASQSLYNNENLAWFQQKPGKVPKRLIYGASTLASGVSSRFSGSGSGTEFTLTISSLQCEDFAIYYCLGEFSCGSADCFAFGGGTKVEIK
B2: Fab complex #36 (Fab, V domains shown)
VH: B1 VH
VL: B1 VL
B3: Fab complex #41 (Fab, V domains shown)
VH: B1 VH with Y94F
VL: EQVLTQSPSSLSASVGDRVTINCQASQSLYNNENLAWFQQKPGKVPKRLIYGASTLASGVSSRFSGSGSGTEFTLTISNLQPEDFAIYYCLGEFSCGSADCFAFGGGTKVEIK
B4: humanized antibody complex #73 (antibody, human IgG1, V domains shown)
VH: B1 VH
VL: B3 VL with Q2I, I87T
B5: Fab complex #37 (Fab, V domains shown)
VH: B1 VH with Y94F
VL: B1 VL
B6: Fab complex #39 (Fab, V domains shown)
VH: B1 VH with Y94F
VL: B3 VL with Q2I, I87T
B7: Fab complex #40 (Fab, V domains shown)
VH: B1 VH
VL: B3 VL with Q2I, I87T
B8: humanized antibody complex #71 (antibody, human IgG1, V domains shown)
VH: B1 VH
VL: B3 VL
B9: humanized antibody complex #70 (antibody, human IgG1, V domains shown)
VH: B1 VH with Y94F
VL: B1 VL
B10: Fab complex #38 (Fab, V domains shown)
VH: B1 VH
VL: B3 VL
B11: humanized antibody complex #72 (antibody, human IgG1, V domains shown)
VH: B1 VH with Y94F
VL: B3 VL with Q2I, I87T
B12: humanized antibody complex #74 (antibody, human IgG1, V domains shown)
VH: B1 VH with Y94F
VL: B3 VL
B13: Fab complex #9 (Fab, V domains shown)
VH: AVTLDESGGGLQTPGGALSLVCKASGFTFSGYDMLWVRQAPGKGLEWVAGIGSTGGGTDYGAAVKGRATISRDNGQSTVRLQLNNLRAEDTATYYCAKVAGGCNSGYCRDSPGSIDAWGHGTEVIVS
VL: AVTQQPASVSANPGETVKITCSGGGSRNYYGWYQQKSPGSVPVTVIYYDDQRPSNIPSRFSGALSGSTSTLTITGVQADDEAVYFCGSADSNTYEGSFGAGTTLTVL
B14: Fab complex #30 (Fab, V domains shown)
VH: GPDLVKPGASVKISCKASGYSFTAYYMHWVKQSHGKSLEWIGRVNPNNGGTTYNQKFKGKAILTVDKSSSTAYMELRSLTFEDSAVYYCARRIYYGYFDYWGQGTTVTVSS
VL: AFFAVSLGQRATISCKASQSVDYDGDSYMNWYQQKPGQPPKLLIYVASNLESGVPARFSGSGSGTDFTLNIHPVEEEDAATYYCQQSNEDPYTFGGGTKLEIKQ
B15: Fab complex #14 (Fab, V domains shown)
VH: DAELVKPGASVKISCKASGYTFTDHSIHWVQQKPEQGLEWIGYISPGNGNIKYNEKFKGKATLTADKSSSTAYMQLNSLTSEDSAVYFCKRSLGRGGPYYFDYWGQGTTVTVSS
VL: DIVLTQAAPSLPVTPGESVSISCRSSKSLLHSNGNTYLYWFLQRPGQSPQLLIYRMSNLASGVPDRFSGSGSGTAFTLRISRVEAEDVGVYYCMQHREYPVTFGSGPN
B16: Fab complex #13 (Fab, V domains shown)
VH: GAELVRSGASVKMSCKASGYSFTDYNMYWVKQTPGQGLEWIGYIYPGNGGTNYNQKFKGKATLTADTSSSTAYMQISSLTSEDSAVYFCARDYDDGGYAMDYWGQGTTVTVSS
VL: DIQMTQSPASLSASVGETVTITCRASGNIHNYLTWYQQKQGKSPQLLVYNAKTLADGVPSRFSGSGSGTQYSLKINRLQPEDFGSYYCQHFWNIPWTFGGGTKLNSR

The target in the first assay is T1, human CAPRIN-1 on the cell membrane surface of human cancer cells (human). Briefly: flow cytometry, human cancer cells. (In flow cytometry, cells or beads pass a laser one at a time.)
In the case of B1, the binding entry is “binds”.
With B2, the binding result is “binds”.
Regarding B3, the binding entry is “binds”.
The same measure, in the same setting: under B4 stands “binds”; under B5, “binds”.
On the same count and under the same terms, under B6 stands “binds”.
Consider B7, for which the binding entry is given as “binds”.
On the same count and under the same terms, in the case of B8 it was “binds”.
The same measure, in the same setting: under B9 stands “binds”.
Same read-out and setting: under B10 stands “binds”; under B11, “binds”; under B12, “binds”.
As to B13, the binding entry is on record as “binds”.
On to B14, for which the binding entry is recorded as “binds”.
On the same count and under the same terms, in the case of B15 it was “binds”; in that of B16, “binds”.

Another assay addresses T2, mouse CAPRIN-1 on the cell membrane surface of mouse cancer cells (mouse). Briefly: flow cytometry, 4T1.
Turning to B1, the binding entry is “binds”.
Turning to B2, the binding result is reported as “binds”.
Consider B3, for which the binding entry was “binds”.
Consider B4, for which the binding entry was “binds”.
Turning to B5, the binding entry was “binds”.
In the case of B6, the binding result was “binds”.
The same measure, in the same setting: in the case of B7 it was “binds”; in that of B8, “binds”; in that of B9, “binds”.
As to B10, the binding result is “binds”.
As for B11, the binding entry is given as “binds”.
Still for that read-out and setting: under B12 stands “binds”; under B13, “binds”; under B14, “binds”.
The same measure, in the same setting: in the case of B15 it was “binds”; in that of B16, “binds”.

In the next assay the target is T1, human CAPRIN-1 on the cell membrane surface of human cancer cells (human). As to the kind of experiment: flow cytometry, HT29.
On to B1, for which the binding result is given as “binds”.
In the case of B2, the binding result is reported as “binds”.
Take B3: the binding entry is recorded as “binds”.
Still for that read-out and setting: under B4 stands “binds”; under B5, “binds”.
On the same count and under the same terms, under B6 stands “binds”; under B7, “binds”.
As for B8, the binding result is reported as “binds”.
Same read-out and setting: under B9 stands “binds”.
For the molecule B10, the binding entry was “binds”.
The same measure, in the same setting: under B11 stands “binds”; under B12, “binds”.
For the molecule B13, the binding entry is reported as “binds”.
The same measure, in the same setting: in the case of B14 it was “binds”; in that of B15, “binds”; in that of B16, “binds”.

The target of another assay is T2, mouse CAPRIN-1 on the cell membrane surface of mouse cancer cells (mouse). Briefly: flow cytometry, mouse cancer cells.
In the case of B1, the binding result is reported as “binds”.
Consider B2, for which the binding entry is “binds”.
The same measure, in the same setting: in the case of B3 it was “binds”.
On the same count and under the same terms, under B4 stands “binds”.
The same measure, in the same setting: in the case of B5 it was “binds”; in that of B6, “binds”; in that of B7, “binds”.
B8: the binding result is recorded as “binds”.
Same read-out and setting: under B9 stands “binds”; under B10, “binds”.
As to B11, the binding result is on record as “binds”.
Regarding B12, the binding result is given as “binds”.
Turning to B13, the binding entry was “binds”.
Same read-out and setting: in the case of B14 it was “binds”; in that of B15, “binds”.
Same read-out and setting: in the case of B16 it was “binds”.
